Assay results from US20090286727A1 (Ablynx, published 2009).
These are yes or no findings as the source states them, for the method shown. Some results given as binding are weak or reduced against the parent protein; the word gives no strength.

Sequences of proteins named here, by UniProt entry; tags and fusion partners are left off. Residues count along the entry.
UniProt P05231, residues 30-212: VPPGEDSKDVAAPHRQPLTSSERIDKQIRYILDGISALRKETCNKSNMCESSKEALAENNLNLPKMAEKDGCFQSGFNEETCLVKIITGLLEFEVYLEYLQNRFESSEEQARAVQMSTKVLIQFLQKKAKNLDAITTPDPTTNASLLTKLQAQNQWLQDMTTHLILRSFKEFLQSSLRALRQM

T1: IL6R
T1 sequence: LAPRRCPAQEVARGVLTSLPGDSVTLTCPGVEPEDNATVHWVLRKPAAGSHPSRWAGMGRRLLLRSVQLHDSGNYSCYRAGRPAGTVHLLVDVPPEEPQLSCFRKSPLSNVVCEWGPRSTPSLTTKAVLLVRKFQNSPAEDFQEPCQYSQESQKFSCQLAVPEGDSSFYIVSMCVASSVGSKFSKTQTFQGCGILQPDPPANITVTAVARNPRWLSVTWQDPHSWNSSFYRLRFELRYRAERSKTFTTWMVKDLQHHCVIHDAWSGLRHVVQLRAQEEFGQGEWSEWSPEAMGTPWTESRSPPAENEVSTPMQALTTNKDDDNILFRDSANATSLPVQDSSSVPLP


Key:
human IL6 = biological target: T2, human IL6 (human, UniProt P05231 30-212, biotinylated in the ELISA (bio-IL6); site not given); test: SPR (Biacore 3000), 300 nM Nanobody passed over a CM5 chip with human IL6
T2 construct: In the ELISA it was biotinylated and captured on a neutravidin-coated plate; In Biacore it was on a CM5 sensor chip; also called bio-IL6; biotinylated human IL6

IL6R = biological target: T1, IL6R; test: SPR (Biacore 3000), 300 nM Nanobody passed over a CM5 chip with human IL6R

| binding (human IL6) | binding (IL6R) | Binder |
| --- | --- | --- |
| binds | no binding (tested: 300 nM) | VH4 16.1 (VHH, The two are tied only by the clone number; Llama VH4-class Nanobody, purified by IMAC as a His6-tagged protein; also called anti-IL6 VH4 Nanobody 16.1; VH4 cl16; not shown: His6 tag from vector pAX51) VHH: QVQLQESGPGLVKPSQTLSLTCTVSGGSITTYRYYWSWIRQPPGKGLEWMGAIAYSGSTYYSPSLKSRTSISRDTTKNQFTLQLSSVTPEDTAVYYCARGRLGSWYYELNEYDYWGQGTQVTVSS |
| binds | no binding (tested: 300 nM) | VH4 20.1 (VHH, The two are tied only by the clone number; also called anti-IL6 VH4 Nanobody 20.1; VH4 Nanobody 20.1; not shown: His6 tag from vector pAX51) VHH: QVQLQESGPGLVKPSQTLSLTCTVSGGSITTYNYAWSWIRQPPGKGLEWMGVIAYDGSTYYSPSLKSRTSISRDTSKNQFSLQLSSVTPEDTAVYYCARGTVGSWYDEFPPRYDYWGQGTQVTVSS |
